Results taken from the supplement of paper PMC7752906.
Where a name gives a salt, the structure may show the parent alone. This is one part of the list. Single values are uncertain here, since repeats match poorly.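 About 40 Schistosoma mansoni schistosomula per well were imaged over time in bright field and compared with 0.1% DMSO wells. A drug counts as a hit if its Mahalanobis distance reaches 2.47 or more, three standard deviations above the DMSO control mean. Degeneracy is the fraction of worms scored opaque.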

test system: Schistosoma mansoni schistosomula; experiment: degeneracy (percent of somules classified as degenerate/opaque); higher = more parasite degeneration/death; extreme values may be limits of the assay; settings: 10 µM; 72 h

Compound	degeneracy [%]
CC(Cc1ccccc1)(NC(=O)CN)c1ccccc1 (stereo not given) [Remacemide Hydrochloride]	22.7
COc1ccc(Cc2cnc(N)nc2N)cc1OC [Diaveridine]	4.65
CC[C@H]1OC(=O)[C@H](C)[C@@H](O[C@H]2C[C@@](C)(OC)[C@@H](O)[C@H](C)O2)[C@H](C)[C@@H](O[C@@H]2O[C@H](C)C[C@H](N(C)C)[C@H]2O)[C@](C)(OC)C[C@@H](C)C(=O)[C@H](C)[C@@H](O)[C@]1(C)O [Clarithromycin]	18.8
CCCCC1=NC2(CCCC2)C(=O)N1Cc1ccc(-c2ccccc2-c2nnn[nH]2)cc1 [Irbesartan]	0
CCCCOC(=O)c1ccc(N)cc1 [Butamben]	6.25
O=C(Nc1ccc(C(=O)O)c(O)c1)c1ccccc1 [Benzoylpas]	0
CCC(CC)(CC(=O)Nc1cccc(/C=C/c2nc(C3CCC3)cs2)c1)C(=O)O [Cinalukast]	6.12
CC(C)COCC(CN(Cc1ccccc1)c1ccccc1)N1CCCC1 (stereo not given) [Bepridil Hydrochloride]	100
C=NC(C(=O)NC1C(=O)N2C1SC(C)(C)C2C(=O)O)c1ccccc1 (stereo not given) [Metampicillin Sodium]	3.33
CC[C@@]1(O)C(=O)OCc2c1cc1n(c2=O)Cc2cc3c([N+](=O)[O-])cccc3nc2-1 [Rubitecan]	0
O=C(CCCl)NCc1ccccc1 [Beclamide]	7.5
CN[C@H](CC(C)C)C(=O)N[C@H]1C(=O)N[C@@H](CC(N)=O)C(=O)N[C@H]2C(=O)N[C@H]3C(=O)N[C@H](C(=O)N[C@H](C(=O)O)c4cc(O)cc(O)c4-c4cc3ccc4O)[C@H](O)c3ccc(c(Cl)c3)Oc3cc2cc(c3O[C@@H]2O[C@H](CO)[C@@H](O)[C@H](O)[C@H]2O[C@H]2C[C@](C)(N)[C@H](O)[C@H](C)O2)Oc2ccc(cc2Cl)[C@H]1O [Vancomycin Hydrochloride]	11.4
CN[C@H](CC(C)C)C(=O)N[C@H]1C(=O)N[C@@H](CC(N)=O)C(=O)N[C@H]2C(=O)N[C@H]3C(=O)N[C@H](C(=O)N[C@H](C(=O)O)c4cc(O)cc(O)c4-c4cc3ccc4O)[C@H](O)c3ccc(c(Cl)c3)Oc3cc2cc(c3O[C@@H]2O[C@H](CO)[C@@H](O)[C@H](O)[C@H]2O[C@H]2C[C@](C)(N)[C@H](O)[C@H](C)O2)Oc2ccc(cc2Cl)[C@H]1O [Vancomycin]	7.14
COc1cc(C(=O)NS(=O)(=O)c2ccccc2C)ccc1Cc1cn(C)c2ccc(NC(=O)OC3CCCC3)cc12 [Zafirlukast]	14.6
S=C1SCN(Cc2ccccc2)CN1Cc1ccccc1 [sulbentine]	100
O=C(O)c1cc(=O)c2ccccc2o1 [Chromocarb]	8.57
C[C@]12CC[C@H]3C(=CCc4cc(O)ccc43)[C@@H]1CCC2=O [Equilin]	28.1
C[C@]12C=CC(=O)C=C1CC[C@@H]1[C@@H]2[C@@H](O)C[C@@]2(C)[C@H]1CC[C@]2(O)C(=O)COP(=O)(O)O [Prednisolone Sodium Phosphate]	2.08
Cc1c(C(N)=O)cc([N+](=O)[O-])cc1[N+](=O)[O-] [Dinitolmide]	4.76
CN(C)c1ccc2nc3ccc(=[N+](C)C)cc-3sc2c1 [Methylene Blue]	100
Cc1ncc([N+](=O)[O-])n1CC(O)CCl (stereo not given) [Ornidazole]	3.85
N#Cc1ccc2[nH]cc(CCCCN3CCN(c4ccc5oc(C(N)=O)cc5c4)CC3)c2c1 [Vilazodone Hydrochloride]	88.9
CN1C(C(=O)Nc2ccccn2)=C(O)c2sccc2S1(=O)=O [Tenoxicam]	9.68

Compound	degeneracy [%]
O=C(Nc1ccccc1)c1ccccc1O [Salicylanilide]	21.4
CS(=O)(=O)c1ccc(C2=C(c3ccccc3)C(=O)OC2)cc1 [Rofecoxib]	3.7
CN(C)CCC=C1c2ccccc2CCc2ccccc21 [Amitriptyline]	91.3
CCN(CC)CCOC(=O)C(c1ccccc1)C1CCCCC1 (stereo not given) [Drofenine Hydrochloride]	40.5
COCC1=C(C(=O)OC(C)OC(=O)OC(C)C)N2C(=O)[C@@H](NC(=O)/C(=N\OC)c3csc(N)n3)[C@H]2SC1 (stereo not given in full) [Cefpodoxime Proxetil]	5.13
COC(=O)C1=C(C)NC(C)=C(C(=O)O[C@H]2CCN(Cc3ccccc3)C2)[C@H]1c1cccc([N+](=O)[O-])c1 [Barnidipine]	10
CCCCC(CC)CN1CN(CC(CC)CCCC)CC(C)(N)C1 (stereo not given) [hexetidine]	100
CNCC[C@H](Oc1cccc2ccccc12)c1cccs1 [Duloxetine Hydrochloride]	94.4
CC(=O)c1ccc2c(c1)N(CCCN1CCC(CCO)CC1)c1ccccc1S2 [Piperacetazine]	100
CCCN(CCC)C(=O)C(CCC(=O)O)NC(=O)c1ccccc1 (stereo not given) [Proglumide]	5.13
CCC(=O)c1ccc(O)cc1 [Paroxypropione]	7.69
Cn1ccnc1S [Thiamazole]	12.5
Oc1ccc(Cl)c2cccnc12 [Cloxyquin]	100
Nc1c(Br)cc(Br)cc1CN[C@H]1CC[C@H](O)CC1 [Ambroxol Hydrochloride]	13.2
CC(C)(Sc1cc(C(C)(C)C)c(O)c(C(C)(C)C)c1)Sc1cc(C(C)(C)C)c(O)c(C(C)(C)C)c1 [Probucol]	0
CC(=O)N[C@@H](CCC(N)=O)C(=O)O [Aceglutamide]	2.86
CN1CCCN=C1COC(=O)C(O)(c1ccccc1)C1CCCCC1 (stereo not given) [Oxyphencyclimine Hydrochloride]	9.3
CC(C)(Oc1ccc(Cl)cc1)C(=O)O [Clofibric Acid]	0
CCC(=O)OCC(=O)[C@@]1(OC(=O)CC)[C@H](C)CC2C3C([C@@H](O)C[C@@]21C)[C@@]1(C)C=CC(=O)C=C1C[C@H]3Cl (stereo not given in full) [Alclometazone Dipropionate]	11.5
CC(C)(S)[C@@H](N)C(=O)O [Penicillamine]	4.88
O=C(O)C1CSCN1 (stereo not given) [Timonacic]	6.67
CCCCCCCCCCC[C@@H](C[C@@H]1OC(=O)[C@H]1CCCCCC)OC(=O)[C@H](CC(C)C)NC=O [orlistat]	100

Nine neighbouring records already listed:
Compound	degeneracy [%]
CCCCOC(=O)c1ccc(N)cc1 [Butamben]	6.25
O=C(Nc1ccc(C(=O)O)c(O)c1)c1ccccc1 [Benzoylpas]	0
CCC(CC)(CC(=O)Nc1cccc(/C=C/c2nc(C3CCC3)cs2)c1)C(=O)O [Cinalukast]	6.12
CC(C)COCC(CN(Cc1ccccc1)c1ccccc1)N1CCCC1 (stereo not given) [Bepridil Hydrochloride]	100
C=NC(C(=O)NC1C(=O)N2C1SC(C)(C)C2C(=O)O)c1ccccc1 (stereo not given) [Metampicillin Sodium]	3.33
CC[C@@]1(O)C(=O)OCc2c1cc1n(c2=O)Cc2cc3c([N+](=O)[O-])cccc3nc2-1 [Rubitecan]	0
O=C(CCCl)NCc1ccccc1 [Beclamide]	7.5
CN[C@H](CC(C)C)C(=O)N[C@H]1C(=O)N[C@@H](CC(N)=O)C(=O)N[C@H]2C(=O)N[C@H]3C(=O)N[C@H](C(=O)N[C@H](C(=O)O)c4cc(O)cc(O)c4-c4cc3ccc4O)[C@H](O)c3ccc(c(Cl)c3)Oc3cc2cc(c3O[C@@H]2O[C@H](CO)[C@@H](O)[C@H](O)[C@H]2O[C@H]2C[C@](C)(N)[C@H](O)[C@H](C)O2)Oc2ccc(cc2Cl)[C@H]1O [Vancomycin Hydrochloride]	11.4
CN[C@H](CC(C)C)C(=O)N[C@H]1C(=O)N[C@@H](CC(N)=O)C(=O)N[C@H]2C(=O)N[C@H]3C(=O)N[C@H](C(=O)N[C@H](C(=O)O)c4cc(O)cc(O)c4-c4cc3ccc4O)[C@H](O)c3ccc(c(Cl)c3)Oc3cc2cc(c3O[C@@H]2O[C@H](CO)[C@@H](O)[C@H](O)[C@H]2O[C@H]2C[C@](C)(N)[C@H](O)[C@H](C)O2)Oc2ccc(cc2Cl)[C@H]1O [Vancomycin]	7.14
